The values that follow come from publication PMC5296651.

By UniProt entry, the sequences of proteins in these tests, tags left out.
UniProt Q92769: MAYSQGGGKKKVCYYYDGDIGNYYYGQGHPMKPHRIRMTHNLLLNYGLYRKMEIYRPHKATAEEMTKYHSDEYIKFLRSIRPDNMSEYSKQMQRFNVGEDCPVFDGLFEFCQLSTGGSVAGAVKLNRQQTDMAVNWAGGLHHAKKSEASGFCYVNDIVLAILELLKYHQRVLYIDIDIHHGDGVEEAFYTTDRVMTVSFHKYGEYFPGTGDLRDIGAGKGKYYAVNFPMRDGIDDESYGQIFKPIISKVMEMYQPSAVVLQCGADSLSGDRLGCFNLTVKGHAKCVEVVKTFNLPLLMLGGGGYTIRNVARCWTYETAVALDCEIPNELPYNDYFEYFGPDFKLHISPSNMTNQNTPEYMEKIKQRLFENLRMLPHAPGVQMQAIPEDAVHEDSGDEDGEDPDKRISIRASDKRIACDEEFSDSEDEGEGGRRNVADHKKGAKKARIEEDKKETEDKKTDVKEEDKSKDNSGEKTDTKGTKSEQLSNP

Where two headings read alike, the source gives them in different places. Results are given in words; binding and its absence hold for the method and conditions named. In cells and extracts the contact can be indirect. Some binding calls cover weakened binding; strength is not graded here.

Holding throughout (assay): co-IP; immunoprecipitation with anti-HOPX antibody (anti-IgG as negative control) from lysates of CH, SH, N2-Tert and NP69 cells, IP lysis buffer, overnight at 4 °C, Protein A/G Sepharose beads; western blotting
(Immunoblotting shows a protein as a band on a membrane.)

The target of experiment [1] is T1, HOP homeobox (HOPX), endogenous in N2-Tert and NP69 cells (human (endogenous in N2-Tert and NP69)) (UniProt Q9BPY8).
T1 sequence: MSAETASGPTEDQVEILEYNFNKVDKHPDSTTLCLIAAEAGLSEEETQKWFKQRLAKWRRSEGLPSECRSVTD

The target in experiment [2] is T2, HOP homeobox (HOPX), stably overexpressed in CNE2 and SUNE1 cells (human) (UniProt Q9BPY8).
T2 sequence: T1 sequence

Experiment [3] has as its target T1, HOP homeobox (HOPX), endogenous in N2-Tert and NP69 cells (human (endogenous in N2-Tert and NP69)). This is another data set of the same source.
For experiment [4], the target named is T2, HOP homeobox (HOPX), stably overexpressed in CNE2 and SUNE1 cells (human). The source holds these as a separate data set.

For “histone deacetylases 2 (HDAC2) (from UniProt Q92769 1-488)”, the binding result in experiment [1] and in experiment [2] was “binds” throughout.

B1: serum response factor (SRF) (protein, UniProt P11831 1-508)
chain: MLPTQAGAAAALGRGSALGGSLNRTPTGRPGGGGGTRGANGGRVPGNGAGLGPGRLEREAAAAAATTPAPTAGALYSGSEGDSESGEEEELGAERRGLKRSLSEMEIGMVVGGPEASAAATGGYGPVSGAVSGAKPGKKTRGRVKIKMEFIDNKLRRYTTFSKRKTGIMKKAYELSTLTGTQVLLLVASETGHVYTFATRKLQPMITSETGKALIQTCLNSPDSPPRSDPTTDQRMSATGFEETDLTYQVSESDSSGETKDTLKPAFTVTNLPGTTSTIQTAPSTSTTMQVSSGPSFPITNYLAPVSASVSPSAVSSANGTVLKSTGSGPVSSGGLMQLPTSFTLMPGGAVAQQVPVQAIQVHQAPQQASPSRDSSTDLTQTSSSGTVTLPATIMTSSVPTTVGGHMMYPSPHAVMYAPTSGLGDGSLTVLNAFSQAPSTMQVSHSQVQEPGGVPQVFLTASSGTVQIPVSAVQLHQMAVIGQQAGSSSNLTELQVVNLDTAHSTKSE
For B1, the binding entry in experiment [3] and in experiment [4] was “binds” each time.
